{"sequences": {"note": "Sequences of proteins named here, by UniProt entry; tags and fusion partners are left off. Residues count along the entry.", "UniProt P14625, residues 22-803": "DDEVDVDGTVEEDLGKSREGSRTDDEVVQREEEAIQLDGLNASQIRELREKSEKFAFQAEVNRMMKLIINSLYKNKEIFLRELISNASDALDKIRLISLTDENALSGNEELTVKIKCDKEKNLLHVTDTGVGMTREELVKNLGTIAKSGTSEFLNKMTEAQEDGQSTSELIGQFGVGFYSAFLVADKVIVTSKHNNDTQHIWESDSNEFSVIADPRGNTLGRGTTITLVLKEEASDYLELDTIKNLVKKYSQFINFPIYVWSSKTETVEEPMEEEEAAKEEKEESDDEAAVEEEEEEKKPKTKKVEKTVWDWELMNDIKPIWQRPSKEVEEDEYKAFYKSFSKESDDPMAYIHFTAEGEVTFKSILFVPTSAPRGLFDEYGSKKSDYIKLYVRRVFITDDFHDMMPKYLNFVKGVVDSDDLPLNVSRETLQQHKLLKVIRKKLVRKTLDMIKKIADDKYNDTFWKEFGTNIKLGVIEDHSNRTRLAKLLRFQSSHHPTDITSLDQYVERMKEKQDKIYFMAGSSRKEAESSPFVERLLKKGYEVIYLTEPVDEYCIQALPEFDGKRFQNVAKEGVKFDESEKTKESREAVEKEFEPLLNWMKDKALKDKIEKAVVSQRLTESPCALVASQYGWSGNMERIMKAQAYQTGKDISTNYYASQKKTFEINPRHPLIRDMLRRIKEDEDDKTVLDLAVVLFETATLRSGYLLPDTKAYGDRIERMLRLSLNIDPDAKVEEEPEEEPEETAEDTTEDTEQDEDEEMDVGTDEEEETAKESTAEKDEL"}, "source": "paper PMC11629888", "molecular_target": "T1, Flag-CCDC134 (internal Flag tag), stably reconstituted in CCDC134 knockout CAL-1 cells (human) (UniProt Q9H6E4)", "T1 sequence": "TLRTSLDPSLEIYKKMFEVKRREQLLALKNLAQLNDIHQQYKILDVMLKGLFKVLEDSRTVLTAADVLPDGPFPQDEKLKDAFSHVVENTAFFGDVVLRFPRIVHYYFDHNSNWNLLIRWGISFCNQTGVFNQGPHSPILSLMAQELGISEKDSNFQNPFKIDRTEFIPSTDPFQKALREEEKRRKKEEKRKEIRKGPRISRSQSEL", "test": "affinity purification with mass spectrometry; anti-Flag M2 immunoprecipitation of Flag-CCDC134 from 5 x 10^7 stably reconstituted sgCCDC134 CAL-1 cells against control CAL-1 (sgRen, empty vector); preclearing with Sepharose 6B; four replicates", "note": "These are yes or no findings as the source states them, for the method shown. In cells and extracts the contact can be indirect. A yes stands for co-enrichment or nearness to the bait. Other partners may have been found. Where a sequence is shown, tags or fusion partners need not be part of it."}
{"substance": "endogenous Gp96 in CAL-1 cells (from UniProt P14625 22-803)", "values": [{"measurement": "binding", "result": "binds"}]}
